# Measured values as given in the supplement of paper PMC9578143, “Small-Molecule Ebselen Binds to YTHDF Proteins Interfering with the Recognition of N^6-Methyladenosine-Modified RNAs” (ACS Pharmacology & Translational Science, 2022).
# This is one part of the list. Part of the spread comes from offsets between plates or batches.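 Hits were defined as a z-score below −3.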
# Target: T1, YTHDF1 YTH domain (aa 365-554) (UniProt Q9BYJ9)
# T1 sequence (whole entry): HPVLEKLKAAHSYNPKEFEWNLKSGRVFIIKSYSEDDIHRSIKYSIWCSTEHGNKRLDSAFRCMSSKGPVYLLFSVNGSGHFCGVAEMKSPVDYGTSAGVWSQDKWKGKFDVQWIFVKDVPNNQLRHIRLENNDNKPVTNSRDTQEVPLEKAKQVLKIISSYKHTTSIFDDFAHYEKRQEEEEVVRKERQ
# Experiment: tryptophan fluorescence intensity z-score (mean); higher = higher fluorescence, less quenching (negative = binding / quenching)
# Settings: 10 µM
row,SMILES,tryptophan fluorescence intensity z-score
1,C[C@@H]1C[C@H](O)[C@@]2(O)[C@]13CC(=O)OC[C@@]2(C)[C@@](C)(O)C(=O)C3 (plate: M 15-16),inactive: 0.754
2,CC(=O)O[C@H]1CC[C@@]2(C)[C@H](CC[C@@H]3[C@@H]2CC[C@]2(C)[C@@H](C4=CC(=O)OC4)[C@@H](OC(C)=O)C[C@]32O)C1 (plate: M 13-14),inactive: 0.354
3,CC[N+]1(C)CCCC(OC(=O)C(O)(c2ccccc2)c2ccccc2)C1 (stereo not given) (plate: M 21-22),inactive: 0.519
4,CC1=C2C(=CO[C@H](C)[C@H]2C)C(O)=C(C(=O)O)C1=O (plate: M 15-16),inactive: 0.361
5,N#Cc1c(Cl)c(Cl)c(Cl)c(C#N)c1Cl (plate: M 23-24),inactive: 0.586
6,COc1cc2c3cc1Oc1c(OC)c(OC)cc4c1[C@@H](Cc1cccc(c1)Oc1ccc(c(O)c1)C[C@@H]3N(C)CC2)N(C)CC4 (plate: M 17-18),inactive: -0.0885
7,O=c1ccc2cc(O[C@@H]3O[C@H](CO)[C@@H](O)[C@H](O)[C@H]3O)c(O)cc2o1 (plate: M 17-18),inactive: -0.115
8,NCC(O)c1ccc(O)cc1 (stereo not given) (plate: M 17-18),inactive: 0.558
9,Cc1ccc(/N=C/N(C)/C=N/c2ccc(C)cc2C)c(C)c1 (plate: M 9-10),inactive: 0.13
10,C[C@]12CC[C@H]3[C@@H](CCC4=CC(=O)CC[C@@]43C)[C@@H]1CC[C@@H]2O (plate: M 1-2),inactive: 0.355
11,"C[C@]12CCC(=O)C[C@@H]1CC[C@@H]1[C@@H]2CC[C@]2(C)C(=O)CC[C@@H]12 [5alpha-ANDROSTAN-3,17-DIONE] (plate: M 15-16)",inactive: 0.254
12,C[C@]12CC[C@H](O)C[C@H]1CC[C@@H]1[C@@H]2CC[C@]2(C)[C@@H](C3=CC(=O)OC3)[C@@H](O)C[C@]12O (plate: M 21-22),inactive: 0.258
13,CC(=O)O[C@H]1C[C@@H]2CC[C@@H]3[C@H](CC[C@@]4(C)[C@H]3C[C@H]([N+]3(C)CCCCC3)[C@@H]4OC(C)=O)[C@@]2(C)C[C@@H]1[N+]1(C)CCCCC1 (plate: M 11-12),inactive: -0.515
14,CCSCC[C@H](N)C(=O)O (plate: M 23-24),inactive: 0.384
15,COc1c2c(cc3c1OCO3)CCN(C)C2 (plate: M 17-18),inactive: 0.397
16,"C[C@@H]1C(=O)O[C@H]2[C@H]1CC[C@@]1(C)C=CC(=O)[C@@]3(C)O[C@@]213 [EPOXY(4,5alpha)-4,5-DIHYDROSANTONIN] (plate: M 15-16)",inactive: 0.38
17,COP(=O)(OC)C(O)C(Cl)(Cl)Cl (stereo not given) (plate: M 11-12),inactive: -0.624
18,CNC1CC(N)C(O)C(OC2OC(CO)C(O)C3OC4(OC(C(N)CO)C(O)C(O)C4O)OC23)C1O (stereo not given) (plate: M 23-24),inactive: 0.408
19,C=CCc1ccc2c(c1)OCO2 (plate: M 19-20),inactive: 0.188
20,CCCC(C)C1(CC)C(=O)NC(=O)NC1=O (stereo not given) (plate: M 13-14),inactive: 0.79

# A draw from above in order of molar mass, ascending.
row,SMILES,tryptophan fluorescence intensity z-score
4,CC1=C2C(=CO[C@H](C)[C@H]2C)C(O)=C(C(=O)O)C1=O (plate: M 15-16),inactive: 0.361
12,C[C@]12CC[C@H](O)C[C@H]1CC[C@@H]1[C@@H]2CC[C@]2(C)[C@@H](C3=CC(=O)OC3)[C@@H](O)C[C@]12O (plate: M 21-22),inactive: 0.258
18,CNC1CC(N)C(O)C(OC2OC(CO)C(O)C3OC4(OC(C(N)CO)C(O)C(O)C4O)OC23)C1O (stereo not given) (plate: M 23-24),inactive: 0.408

# Additional structures

row,SMILES,tryptophan fluorescence intensity z-score
1,COP(=O)(OC)OC=C(Cl)Cl (plate: M 1-2),inactive: 0.718
2,S=C=NCc1ccccc1 (plate: M 19-20),inactive: 0.159
3,C[C@]12CCC(=O)C=C1C=C[C@@H]1[C@@H]2CC[C@@]2(C)[C@H]1CC[C@@]2(O)CCC(=O)O (plate: M 5-6),inactive: 0.0156
4,CO[C@H]1[C@H](O)[C@H](O[C@H]2CC[C@@]3(C=O)[C@H](CC[C@@H]4[C@@H]3CC[C@]3(C)[C@@H](C5=CC(=O)OC5)CC[C@]43O)C2)O[C@@H](C)[C@@H]1O (plate: M 21-22),inactive: 0.104
5,CC(=O)O[C@@H]1[C@H]2CC[C@H]3[C@@](C)(O)[C@@H]4C[C@H](O)C(C)(C)[C@@]4(O)[C@H](O)C[C@@]13C[C@@]2(C)O (plate: M 15-16),inactive: 0.57
6,CC[C@@H](C(=O)[C@@H](C)[C@@H](O)[C@H](C)[C@@H]1O[C@@H]([C@@H](CC)C(=O)O)CC[C@@H]1C)[C@H]1O[C@]2(C=C[C@@H](O)[C@]3(CC[C@@](C)([C@H]4CC[C@](O)(CC)[C@H](C)O4)O3)O2)[C@H](C)C[C@@H]1C (plate: M 19-20),inactive: 0.794
7,CN[C@@H](C)[C@@H](O)c1ccccc1 (plate: M 5-6),inactive: 0.0171
8,CN1[C@@H]2C[C@@H](OC(=O)[C@H](CO)c3ccccc3)C[C@H]1[C@@H]1O[C@@H]12 (plate: M 5-6),inactive: -0.0455
9,C[C@@H]1O[C@@H](O[C@H]2CC[C@]3(C=O)[C@H]4CC[C@]5(C)[C@@H](C6=CC(=O)OC6)CC[C@]5(O)[C@@H]4CC[C@]3(O)C2)[C@H](O)[C@H](O)[C@H]1O (plate: M 19-20),inactive: 0.627
10,CC1(C)C2CC(=O)[C@]3(C)C(CC[C@@]4(C)[C@H](c5ccoc5)OC(=O)C5OC543)[C@@]2(C)[C@@H](O)C[C@H]1O (stereo not given in full) (plate: M 13-14),inactive: -0.0247
11,C[C@H]1O[C@H](OC2[C@@H](O)[C@@H](O)C(O)[C@H](O)[C@H]2O)[C@@H](N)C[C@@H]1N=C(N)C(=O)O (stereo not given in full) (plate: M 19-20),inactive: 0.146
12,COC1=C[C@@H]2[C@@H]3Cc4ccc(OC)c(O)c4[C@]2(CCN3C)CC1=O (plate: M 19-20),inactive: 0.62
13,CCOC(=O)C1C(C=C(C)C)C1(C)C (stereo not given) (plate: M 17-18),inactive: 0.501
14,O=C1C=CC(=O)c2ccccc21 (plate: M 23-24),inactive: -2.03
15,CCC(C)C(=O)O[C@@H]1C[C@@]2(C)[C@H](c3ccoc3)OC(=O)CC23OC2(C)O[C@]14[C@]1(C)[C@@H](CC(=O)OC)C5(C)CC1(O)[C@](O)(C5OC(=O)C1(C)OC1C)[C@@H](OC(C)=O)[C@]34O2 (stereo not given in full) (plate: M 13-14),inactive: 0.882
16,CN1C[C@H](C(=O)N[C@]2(C)O[C@@]3(O)[C@@H]4CCCN4C(=O)[C@H](Cc4ccccc4)N3C2=O)C=C2c3cccc4[nH]cc(c34)C[C@H]21 (plate: M 11-12),inactive: -0.785
17,CNc1ccccc1C(=O)O (plate: M 21-22),inactive: 0.118
18,[O-][n+]1ccccc1[S-].[O-][n+]1ccccc1[S-].[Zn+2] (plate: M 3-4),inactive: -0.372
19,CN[C@@H]1[C@@H](O)[C@@H](O[C@@H]2[C@@H](O)[C@H](O[C@H]3O[C@H](CN)CC[C@H]3N)[C@@H](N)C[C@H]2N)OC[C@]1(C)O.CN[C@@H]1[C@@H](O)[C@@H](O[C@@H]2[C@@H](O)[C@H](O[C@H]3O[C@H]([C@@H](C)N)CC[C@H]3N)[C@@H](N)C[C@H]2N)OC[C@]1(C)O.CN[C@@H]1[C@@H](O)[C@@H](O[C@@H]2[C@@H](O)[C@H](O[C@H]3O[C@H]([C@@H](C)NC)CC[C@H]3N)[C@@H](N)C[C@H]2N)OC[C@]1(C)O (plate: M 3-4),inactive: -0.156
20,CC(=O)O[C@H]1[C@H]2[C@@H](OC(=O)Cc3ccccc3)[C@@H](C)C[C@]2(OC(C)=O)C(=O)/C(C)=C/[C@@H]2[C@H](CC[C@@]13CO3)C2(C)C (plate: M 21-22),inactive: 0.182

row,SMILES,tryptophan fluorescence intensity z-score
1,NC(=O)c1cc([N+](=O)[O-])cc([N+](=O)[O-])c1 (plate: M 3-4),inactive: 0.243
2,COc1ccc2c(c1O)-c1c(OC)c(OC)cc3c1[C@H](C2)N(C)CC3 (plate: M 17-18),inactive: 0.719
3,O=C1CC[C@@]2(O)[C@H]3Cc4ccc(O)c5c4[C@@]2(CCN3CC2CC2)[C@H]1O5 (plate: M 9-10),inactive: 0.342
4,CC(=O)[C@H]1CC[C@H]2[C@@H]3CC[C@H]4C[C@H](O)CC[C@]4(C)[C@H]3CC[C@]12C (plate: M 13-14),inactive: 0.358
5,C=CCSSCC=C (plate: M 19-20),inactive: 0.354
6,NCC(CC(=O)O)c1ccc(Cl)cc1 (stereo not given) (plate: M 1-2),inactive: 0.151
7,CC(NC(C)(C)C)C(=O)c1cccc(Cl)c1 (stereo not given) (plate: M 9-10),inactive: -0.165
8,O=C(O)CCCO (plate: M 1-2),inactive: 0.524
9,c1ccc2c(c1)[nH]c1cnccc12 (plate: M 17-18),inactive: 0.168
10,COC1=C[C@]23CCCN2CCc2cc4c(cc2[C@@H]3[C@@H]1O)OCO4 (plate: M 17-18),inactive: 1.49
11,NCCCNCCSP(=O)(O)O (plate: M 13-14),inactive: 0.443
12,CC(C)c1ccc2c(c1O)CC[C@H]1C3=C(CC[C@]21C)C(=O)OC3 (plate: M 19-20),inactive: 0.427
13,Nc1ccc([As](=O)(O)O)cc1 (plate: M 11-12),inactive: -0.0801
14,COP(=S)(OC)Oc1cc(Cl)c(Cl)cc1Cl (plate: M 11-12),inactive: -0.662
15,COc1cc2occc2c2oc(=O)ccc12 (plate: M 17-18),inactive: 0.515
16,COc1cccc2c1cc([N+](=O)[O-])c1c(C(=O)O)cc3c(c12)OCO3 (plate: M 19-20),inactive: 0.662
17,COc1ccc(/C=C/c2cc(O)cc(O)c2)cc1 (plate: M 19-20),inactive: -0.506
18,O=c1[nH]c2ccccc2n1C1CCN(CCCC(c2ccc(F)cc2)c2ccc(F)cc2)CC1 (plate: M 7-8),inactive: 0.652
19,CC(=O)[O][Hg][c]1ccccc1 (plate: M 5-6),inactive: -2.36
20,CC(=O)Nc1cc([As](=O)(O)O)ccc1O (plate: M 5-6),inactive: 0.2

# Look-ups from the entries so far:
# tryptophan fluorescence intensity z-score with O=C1CC[C@@]2(O)[C@H]3Cc4ccc(O)c5c4[C@@]2(CCN3CC2CC2)[C@H]1O5 (plate: M 9-10) is entered as inactive: 0.342
# tryptophan fluorescence intensity z-score with COC1=C[C@]23CCCN2CCc2cc4c(cc2[C@@H]3[C@@H]1O)OCO4 (plate: M 17-18) is entered as inactive: 1.49
